Source: the supplement of paper PMC5355238
Where a name gives a salt, the structure may show the parent alone. The list shows a part of the results. Most values lie at the level of the controls, where differences are scatter.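 Reh is a human leukemia cell line; the read-out is the median γH2AX antibody signal in S-phase cells by flow cytometry, with the score counting standard deviations from the median difference of each paired set of plates. Scores above 2.5 were called candidate hits, while scores below -2 mark compounds that lowered the MK1775-induced damage.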

test system: Reh; assay: Z' of S-phase gammaH2AX difference (drug + MK1775 minus drug alone) (Z-score); higher = stronger synergistic S-phase DNA damage with MK1775; settings: MK1775 concentration 400 nM; first compound 10 µM; 4 h

| Compound | Z' of S-phase gammaH2AX difference (Z-score) |
| --- | --- |
| CC(=O)O[C@@]12CO[C@@H]1C[C@H](O)[C@@]1(C)C(=O)[C@H](O)C3=C(C)[C@@H](OC(=O)[C@H](O)[C@@H](NC(=O)OC(C)(C)C)c4ccccc4)C[C@@](O)([C@@H](OC(=O)c4ccccc4)[C@H]21)C3(C)C [Docetaxel (Taxotere)] + C=CCn1c(=O)c2cnc(Nc3ccc(N4CCN(C)CC4)cc3)nc2n1-c1cccc(C(C)(C)O)n1 [MK1775] | inactive: -0.017 |
| Nc1ncnc2c1ncn2[C@@H]1O[C@H](CO)[C@@H](O)[C@H]1O [Adenosine] + C=CCn1c(=O)c2cnc(Nc3ccc(N4CCN(C)CC4)cc3)nc2n1-c1cccc(C(C)(C)O)n1 [MK1775] | inactive: 0.15 |
| C[n+]1cc2c3c(ccc2c2ccc4cc5c(cc4c21)OCO5)OCO3 [Sanguinarine chloride] + C=CCn1c(=O)c2cnc(Nc3ccc(N4CCN(C)CC4)cc3)nc2n1-c1cccc(C(C)(C)O)n1 [MK1775] | inactive: -1.33 |
| C[C@]12CC[C@@H]3c4ccc(O)cc4CC[C@H]3[C@@H]1CC[C@@H]2O [Estradiol] + C=CCn1c(=O)c2cnc(Nc3ccc(N4CCN(C)CC4)cc3)nc2n1-c1cccc(C(C)(C)O)n1 [MK1775] | inactive: 0.335 |
| C[C@]12CC[C@@H]3c4ccc(O)cc4CC[C@H]3[C@@H]1CC[C@@H]2O [beta-Estradiol] + C=CCn1c(=O)c2cnc(Nc3ccc(N4CCN(C)CC4)cc3)nc2n1-c1cccc(C(C)(C)O)n1 [MK1775] | inactive: 0.0413 |
| CN(C)CCOC(c1ccccc1)c1ccccc1 [Diphenhydramine hydrochloride] + C=CCn1c(=O)c2cnc(Nc3ccc(N4CCN(C)CC4)cc3)nc2n1-c1cccc(C(C)(C)O)n1 [MK1775] | inactive: -0.0607 |
| CC(=O)[C@H]1CC[C@H]2[C@@H]3CCC4=CC(=O)CC[C@]4(C)[C@H]3CC[C@]12C [Progesterone] + C=CCn1c(=O)c2cnc(Nc3ccc(N4CCN(C)CC4)cc3)nc2n1-c1cccc(C(C)(C)O)n1 [MK1775] | inactive: 1.2 |
| OC(CN1CCC(Cc2ccc(F)cc2)CC1)c1ccc(Cl)cc1 (stereo not given) [Eliprodil] + C=CCn1c(=O)c2cnc(Nc3ccc(N4CCN(C)CC4)cc3)nc2n1-c1cccc(C(C)(C)O)n1 [MK1775] | inactive: 0.226 |
| CN(C)CC/C=C1/c2ccccc2Sc2ccc(Cl)cc21 [Chlorprothixene hydrochloride] + C=CCn1c(=O)c2cnc(Nc3ccc(N4CCN(C)CC4)cc3)nc2n1-c1cccc(C(C)(C)O)n1 [MK1775] | inactive: -0.147 |
| CC(=O)Oc1ccccc1C(=O)O [Acetylsalicylic acid] + C=CCn1c(=O)c2cnc(Nc3ccc(N4CCN(C)CC4)cc3)nc2n1-c1cccc(C(C)(C)O)n1 [MK1775] | inactive: -0.0434 |
| CC1=C(/C=C/C(C)=C/C=C/C(C)=C/C=C/C=C(C)/C=C/C=C(C)/C=C/C2=C(C)C(=O)[C@@H](O)CC2(C)C)C(C)(C)C[C@H](O)C1=O [Astaxanthin] + C=CCn1c(=O)c2cnc(Nc3ccc(N4CCN(C)CC4)cc3)nc2n1-c1cccc(C(C)(C)O)n1 [MK1775] | inactive: 0.414 |
| CC1=C(/C=C/C(C)=C/C=C/C(C)=C/C(=O)O)C(C)(C)CCC1 [Retinoic acid] + C=CCn1c(=O)c2cnc(Nc3ccc(N4CCN(C)CC4)cc3)nc2n1-c1cccc(C(C)(C)O)n1 [MK1775] | inactive: 0.257 |
| CC(O)C(O)[C@H]1CNc2nc(N)[nH]c(=O)c2N1 (stereo partly drawn) [(6R)-5,6,7,8-Tetrahydro-L-biopterin hydrochloride] + C=CCn1c(=O)c2cnc(Nc3ccc(N4CCN(C)CC4)cc3)nc2n1-c1cccc(C(C)(C)O)n1 [MK1775] | inactive: -0.0466 |
| NC(=O)C1=CN(C2OC(COP(=O)(O)OP(=O)(O)OC[C@H]3O[C@@H](n4cnc5c(N)ncnc54)C(OP(=O)(O)O)[C@H]3O)C(O)C2O)C=CC1 (stereo not given in full) [NADPH tetrasodium] + C=CCn1c(=O)c2cnc(Nc3ccc(N4CCN(C)CC4)cc3)nc2n1-c1cccc(C(C)(C)O)n1 [MK1775] | inactive: -0.218 |
| NC(=O)CNCCC(c1ccccc1)c1ccccc1 [N-(3,3-Diphenylpropyl)glycinamide] + C=CCn1c(=O)c2cnc(Nc3ccc(N4CCN(C)CC4)cc3)nc2n1-c1cccc(C(C)(C)O)n1 [MK1775] | inactive: 0.255 |
| CC1=C(C(=O)O)N2C(=O)[C@@H](NC(=O)[C@H](N)C3=CCC=CC3)[C@H]2SC1 [Cephradine] + C=CCn1c(=O)c2cnc(Nc3ccc(N4CCN(C)CC4)cc3)nc2n1-c1cccc(C(C)(C)O)n1 [MK1775] | inactive: 0.0935 |
| O=C(O)c1ccc(-c2c[nH]c3ncc(-c4ccccc4)cc23)cc1C1CCCC1 + C=CCn1c(=O)c2cnc(Nc3ccc(N4CCN(C)CC4)cc3)nc2n1-c1cccc(C(C)(C)O)n1 [MK1775] | inactive: -0.926 |
| CN1CCc2cc(Cl)c(O)cc2[C@@H](c2ccccc2)C1 + C=CCn1c(=O)c2cnc(Nc3ccc(N4CCN(C)CC4)cc3)nc2n1-c1cccc(C(C)(C)O)n1 [MK1775] | inactive: -0.192 |

In a second layout: entries from further up.
CC1=C(/C=C/C(C)=C/C=C/C(C)=C/C(=O)O)C(C)(C)CCC1 [Retinoic acid] + C=CCn1c(=O)c2cnc(Nc3ccc(N4CCN(C)CC4)cc3)nc2n1-c1cccc(C(C)(C)O)n1 [MK1775]
  Z' of S-phase gammaH2AX difference (Z-score): inactive: 0.257
CC(O)C(O)[C@H]1CNc2nc(N)[nH]c(=O)c2N1 (stereo partly drawn) [(6R)-5,6,7,8-Tetrahydro-L-biopterin hydrochloride] + C=CCn1c(=O)c2cnc(Nc3ccc(N4CCN(C)CC4)cc3)nc2n1-c1cccc(C(C)(C)O)n1 [MK1775]
  Z' of S-phase gammaH2AX difference (Z-score): inactive: -0.0466
NC(=O)C1=CN(C2OC(COP(=O)(O)OP(=O)(O)OC[C@H]3O[C@@H](n4cnc5c(N)ncnc54)C(OP(=O)(O)O)[C@H]3O)C(O)C2O)C=CC1 (stereo not given in full) [NADPH tetrasodium] + C=CCn1c(=O)c2cnc(Nc3ccc(N4CCN(C)CC4)cc3)nc2n1-c1cccc(C(C)(C)O)n1 [MK1775]
  Z' of S-phase gammaH2AX difference (Z-score): inactive: -0.218

More results:

| Compound | Z' of S-phase gammaH2AX difference (Z-score) |
| --- | --- |
| Nc1ccc(N2C(=O)c3ccccc3C2=O)c(Cl)c1 [N-(4-Amino-2-chlorophenyl)phthalimide] + C=CCn1c(=O)c2cnc(Nc3ccc(N4CCN(C)CC4)cc3)nc2n1-c1cccc(C(C)(C)O)n1 [MK1775] | inactive: 0.0367 |
| O=C(O)C1CCCN(CCC=C(c2ccccc2)c2ccccc2)C1 (stereo not given) + C=CCn1c(=O)c2cnc(Nc3ccc(N4CCN(C)CC4)cc3)nc2n1-c1cccc(C(C)(C)O)n1 [MK1775] | inactive: 0.483 |
| CC(=O)O[C@]1(C(C)=O)CC[C@H]2[C@@H]3C=C(Cl)C4=CC(=O)[C@@H]5C[C@@H]5[C@]4(C)[C@H]3CC[C@@]21C [Cyproterone acetate] + C=CCn1c(=O)c2cnc(Nc3ccc(N4CCN(C)CC4)cc3)nc2n1-c1cccc(C(C)(C)O)n1 [MK1775] | inactive: -0.0935 |
| N[C@@H]1CONC1=O [D-Cycloserine] + C=CCn1c(=O)c2cnc(Nc3ccc(N4CCN(C)CC4)cc3)nc2n1-c1cccc(C(C)(C)O)n1 [MK1775] | inactive: 0.0568 |
| OCC1OC(n2cnc3c(NC4CCCCC4)ncnc32)C(O)C1O (stereo not given) [N6-Cyclohexyladenosine] + C=CCn1c(=O)c2cnc(Nc3ccc(N4CCN(C)CC4)cc3)nc2n1-c1cccc(C(C)(C)O)n1 [MK1775] | inactive: 0.458 |
| N[C@@H](Cc1c[nH]c2ccc(O)cc12)C(=O)O [5-Hydroxy-L-tryptophan] + C=CCn1c(=O)c2cnc(Nc3ccc(N4CCN(C)CC4)cc3)nc2n1-c1cccc(C(C)(C)O)n1 [MK1775] | inactive: -0.872 |
| CC(C)n1nc(-c2ccc3oc(N)nc3c2)c2c(N)ncnc21 + C=CCn1c(=O)c2cnc(Nc3ccc(N4CCN(C)CC4)cc3)nc2n1-c1cccc(C(C)(C)O)n1 [MK1775] | inactive: -0.832 |
| Clc1ccc(Cn2c(CN3CCCC3)nc3ccccc32)cc1 [Clemizole hydrochloride] + C=CCn1c(=O)c2cnc(Nc3ccc(N4CCN(C)CC4)cc3)nc2n1-c1cccc(C(C)(C)O)n1 [MK1775] | inactive: 0.962 |
| O=C(O)/C=C/c1ccc(O)c(O)c1 [Caffeic Acid] + C=CCn1c(=O)c2cnc(Nc3ccc(N4CCN(C)CC4)cc3)nc2n1-c1cccc(C(C)(C)O)n1 [MK1775] | inactive: -0.651 |
| CCCCc1nc2cc(/C=C/C(=O)NO)ccc2n1CCN(CC)CC [SB939 (Pracinostat)] + C=CCn1c(=O)c2cnc(Nc3ccc(N4CCN(C)CC4)cc3)nc2n1-c1cccc(C(C)(C)O)n1 [MK1775] | inactive: -0.0614 |
| CCCn1c(=O)[nH]c(=O)c2[nH]cnc21 [3-n-Propylxanthine] + C=CCn1c(=O)c2cnc(Nc3ccc(N4CCN(C)CC4)cc3)nc2n1-c1cccc(C(C)(C)O)n1 [MK1775] | inactive: -1.43 |
| OC[C@H]1O[C@@H](n2cnc3c(NC4CCCC4)ncnc32)[C@H](O)[C@@H]1O [N6-Cyclopentyladenosine] + C=CCn1c(=O)c2cnc(Nc3ccc(N4CCN(C)CC4)cc3)nc2n1-c1cccc(C(C)(C)O)n1 [MK1775] | inactive: -0.237 |
| C[N+](C)(C)CC=O [Betaine aldehyde chloride] + C=CCn1c(=O)c2cnc(Nc3ccc(N4CCN(C)CC4)cc3)nc2n1-c1cccc(C(C)(C)O)n1 [MK1775] | inactive: 0.0501 |
| Cn1c(=O)[nH]c2ncn(C)c2c1=O [1,7-Dimethylxanthine] + C=CCn1c(=O)c2cnc(Nc3ccc(N4CCN(C)CC4)cc3)nc2n1-c1cccc(C(C)(C)O)n1 [MK1775] | inactive: 0.134 |
| C1COC(NC(C2CC2)C2CC2)=N1 [Rilmenidine hemifumarate] + C=CCn1c(=O)c2cnc(Nc3ccc(N4CCN(C)CC4)cc3)nc2n1-c1cccc(C(C)(C)O)n1 [MK1775] | inactive: 0.692 |
| COc1cc(OC2CCN(C)CC2)ccc1Nc1ncc2c(n1)n(C1CCCC1)c(=O)n2C + C=CCn1c(=O)c2cnc(Nc3ccc(N4CCN(C)CC4)cc3)nc2n1-c1cccc(C(C)(C)O)n1 [MK1775] | inactive: -0.18 |
| Cc1ccc(S(=O)(=O)N[C@@H](Cc2ccccc2)C(=O)CCl)cc1 [N-p-Tosyl-L-phenylalanine chloromethyl ketone] + C=CCn1c(=O)c2cnc(Nc3ccc(N4CCN(C)CC4)cc3)nc2n1-c1cccc(C(C)(C)O)n1 [MK1775] | inactive: 0.83 |
